Assay results taken from the supplement of paper PMC7877785.
± gives the uncertainty stated by the source. The uncertainty is large for many entries.

Assay: self-splicing fitness, log relative to wild type (ln ratio); higher = more splicing; Tetrahymena group I intron in knt gene, E. coli kanamycin selection, DiMSum; sequences stand for … in CUCUCU…GGAGGGAAAAGUUAUCAGGCAUGCACCUGGUAGCUAGUCUUUAAACCAAUAGAUUGCAUCGGUUUAAAAGGCAAGACCGUCAAAUUGCGGGAAAGGGGUCAACAGCCGUUCAGUACCAAGUCUCAGGGGAAACUUUGAGAUGGCCUUGCAAAGGGUAUGGUAAUAAGCUGACGGACAUGGUCCUAACCACGCAGCCAAGUCCUAAGUCAACAGAUCUUCUGUUGAUAUGGAUGCAGUUCACAGACUAAAUGUCGGUCGGGGAAGAUGUAUUCUUCUCAUAAGAUAUAGUCGGACCUCUCCUUAAUGGGAGCUAGCGGAUGAAGUGAUGCAACACUGGAGCCGCUGGGAACUAAUUUGUAUGCGAAAGUAUAUUGAUUAGUUUUGGAGUACUCGUGGUCG
In short: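 Colonies from six replicate transformations of E. coli BL21(DE3) were pooled and amplicon-sequenced on an Illumina HiSeq 2500. The library placed an intron with all eight P1ex-region nucleotides randomised inside the knt kanamycin-resistance gene on pET-22b(+), and cells grew overnight at 37°C or 30°C on LB agar with or without 25 μg/mL kanamycin (plus 100 μg/mL carbenicillin, 50 μM IPTG, 0.2% rhamnose). Fitness is the DiMSum error-weighted combination of wild-type-normalised replicate fold changes, kanamycin versus none.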

Sequence | self-splicing fitness (ln) (30 °C) | self-splicing fitness (ln) (37 °C)
CGGGAGCAAUAUUACGUUUC | -3.92 ± 0.46 | -2.72 ± 0.62
AGCAAGCAAUAUUACGGCUC | -4.6 ± 0.27 | -3.41 ± 0.4
UAAUAGCAAUAUUACGCGGA | -2.99 ± 0.66 | 
UCUUAGCAAUAUUACGUUGC |  | -3 ± 0.52
CCCGAGCAAUAUUACGGCAC | -4.47 ± 0.51 | 
GGGUAGCAAUAUUACGCGGC |  | -1.68 ± 0.55
CACGAGCAAUAUUACGAGAA | -3.13 ± 1 | 
GUCGAGCAAUAUUACGUCGG | -4.85 ± 1 | 
CCCGAGCAAUAUUACGUGGC | -4.2 ± 0.51 | 
AACGAGCAAUAUUACGCCAU | -2.91 ± 0.27 | -1.52 ± 0.27
UGAUAGCAAUAUUACGACAC | -4.97 ± 0.73 | 
CUUUAGCAAUAUUACGAAUU | -4.16 ± 0.72 | 
UCUCAGCAAUAUUACGCCGG |  | -1.59 ± 0.53
UACGAGCAAUAUUACGGAUU |  | -2.16 ± 1.1
GGAGAGCAAUAUUACGCAUU |  | -2.72 ± 1
UCAUAGCAAUAUUACGCGAU | -1.9 ± 0.22 | -3.25 ± 0.74
UUCAAGCAAUAUUACGGAAG | -3.97 ± 0.59 | -2.75 ± 0.62
CCGCAGCAAUAUUACGCUGG | -2.24 ± 0.11 | -2.92 ± 0.24
GUGCAGCAAUAUUACGCUCC | -4.1 ± 1 | -1.74 ± 0.57

Sequence | self-splicing fitness (ln) (30 °C) | self-splicing fitness (ln) (37 °C)
GGAGAGCAAUAUUACGAGUG | -3.94 ± 0.6 | -1.95 ± 0.51
CGACAGCAAUAUUACGAGAA | -2.57 ± 0.55 | 
UUUGAGCAAUAUUACGUGCG | -4.13 ± 0.6 | 
GGGAAGCAAUAUUACGACGG | -3.75 ± 0.6 | -0.903 ± 0.5
UCGGAGCAAUAUUACGCCAU | -1.78 ± 0.84 | -1.09 ± 0.92
CGGAAGCAAUAUUACGUCGC | -3.3 ± 0.74 | -1.98 ± 1.1
GGUGAGCAAUAUUACGCGUC |  | -2.3 ± 1.1
ACGAAGCAAUAUUACGACAA | -0.701 ± 0.2 | -0.985 ± 0.19
GCAGAGCAAUAUUACGAAGC | -4.34 ± 0.72 | -2.68 ± 0.76
UGGUAGCAAUAUUACGACGC | -2.5 ± 0.55 | 
UGGGAGCAAUAUUACGUACU | -4.29 ± 1.1 | 
UCAUAGCAAUAUUACGAGUC | -1.48 ± 0.56 | -2.3 ± 0.51
UUUCAGCAAUAUUACGGACC |  | -0.096 ± 0.58
CUAAAGCAAUAUUACGCAAA |  | -2.97 ± 0.52
GCUGAGCAAUAUUACGCCAU | -4.04 ± 1.1 | -1.13 ± 0.93
CUGGAGCAAUAUUACGAGGC | -2.02 ± 0.4 | -0.672 ± 0.47
CAGGAGCAAUAUUACGCCGA |  | 0.0981 ± 1.2
GAGGAGCAAUAUUACGCGAU | -2.83 ± 0.56 | -1.71 ± 0.62
UCGCAGCAAUAUUACGCUAU | -5.08 ± 0.36 | -3 ± 0.17

Given in CSV form: entries from further up
Sequence,self-splicing fitness (ln) (30 °C),self-splicing fitness (ln) (37 °C)
UCUUAGCAAUAUUACGUUGC,,-3 ± 0.52
CCCGAGCAAUAUUACGGCAC,-4.47 ± 0.51,
GGGUAGCAAUAUUACGCGGC,,-1.68 ± 0.55
CACGAGCAAUAUUACGAGAA,-3.13 ± 1,
GUCGAGCAAUAUUACGUCGG,-4.85 ± 1,
CCCGAGCAAUAUUACGUGGC,-4.2 ± 0.51,
AACGAGCAAUAUUACGCCAU,-2.91 ± 0.27,-1.52 ± 0.27
UGAUAGCAAUAUUACGACAC,-4.97 ± 0.73,
CUUUAGCAAUAUUACGAAUU,-4.16 ± 0.72,
UCUCAGCAAUAUUACGCCGG,,-1.59 ± 0.53
UACGAGCAAUAUUACGGAUU,,-2.16 ± 1.1
GGAGAGCAAUAUUACGCAUU,,-2.72 ± 1
UCAUAGCAAUAUUACGCGAU,-1.9 ± 0.22,-3.25 ± 0.74

Next entries.

Sequence | self-splicing fitness (ln) (30 °C) | self-splicing fitness (ln) (37 °C)
GUGUAGCAAUAUUACGCAGA | -2.02 ± 1.2 | -2.04 ± 0.57
CGGGAGCAAUAUUACGAUCA | -3.31 ± 0.53 | 
GACGAGCAAUAUUACGCUCC | -2.9 ± 0.29 | -1.91 ± 0.34
CCGGAGCAAUAUUACGCUCC |  | -1.69 ± 1.2
GGGUAGCAAUAUUACGCGCC | -2.85 ± 0.79 | -0.792 ± 0.54
UAUAAGCAAUAUUACGCUAA | -0.69 ± 0.54 | -2.34 ± 0.62
CGGGAGCAAUAUUACGGAAC | -3.06 ± 0.62 | -3.84 ± 1
CCGGAGCAAUAUUACGCCGG | -5.38 ± 0.71 | 
UAUUAGCAAUAUUACGUGCA | -0.96 ± 0.16 | -0.986 ± 0.16
UGCGAGCAAUAUUACGGCGU | -2.58 ± 0.18 | -0.48 ± 0.2
UGUGAGCAAUAUUACGGUAU |  | -2.4 ± 0.64
CCUAAGCAAUAUUACGAGCC | -3.76 ± 0.73 | -2.9 ± 1.1
CACUAGCAAUAUUACGGGCG | -0.464 ± 0.087 | -0.0972 ± 0.084
GGCCAGCAAUAUUACGGCCC |  | -2.06 ± 0.57
GAGGAGCAAUAUUACGCAAU |  | -3.32 ± 1
UGAGAGCAAUAUUACGCUUC |  | -1.81 ± 0.67
UGCGAGCAAUAUUACGCCGC | -3.34 ± 0.36 | -1.3 ± 0.43
UCCAAGCAAUAUUACGCGUC | -3.21 ± 0.1 | -2.63 ± 0.11
